Assay results reported in paper PMC5894220.
Results are given in words; binding and its absence hold for the method and conditions named. In cells and extracts the contact can be indirect. For part of these data: Binding can be weak; no strength is given.

T1: starch synthase IIa (rice, Oryza sativa japonica cv. Nipponbare (endogenous in developing seeds)) (UniProt Q0DDE3)
T1 sequence: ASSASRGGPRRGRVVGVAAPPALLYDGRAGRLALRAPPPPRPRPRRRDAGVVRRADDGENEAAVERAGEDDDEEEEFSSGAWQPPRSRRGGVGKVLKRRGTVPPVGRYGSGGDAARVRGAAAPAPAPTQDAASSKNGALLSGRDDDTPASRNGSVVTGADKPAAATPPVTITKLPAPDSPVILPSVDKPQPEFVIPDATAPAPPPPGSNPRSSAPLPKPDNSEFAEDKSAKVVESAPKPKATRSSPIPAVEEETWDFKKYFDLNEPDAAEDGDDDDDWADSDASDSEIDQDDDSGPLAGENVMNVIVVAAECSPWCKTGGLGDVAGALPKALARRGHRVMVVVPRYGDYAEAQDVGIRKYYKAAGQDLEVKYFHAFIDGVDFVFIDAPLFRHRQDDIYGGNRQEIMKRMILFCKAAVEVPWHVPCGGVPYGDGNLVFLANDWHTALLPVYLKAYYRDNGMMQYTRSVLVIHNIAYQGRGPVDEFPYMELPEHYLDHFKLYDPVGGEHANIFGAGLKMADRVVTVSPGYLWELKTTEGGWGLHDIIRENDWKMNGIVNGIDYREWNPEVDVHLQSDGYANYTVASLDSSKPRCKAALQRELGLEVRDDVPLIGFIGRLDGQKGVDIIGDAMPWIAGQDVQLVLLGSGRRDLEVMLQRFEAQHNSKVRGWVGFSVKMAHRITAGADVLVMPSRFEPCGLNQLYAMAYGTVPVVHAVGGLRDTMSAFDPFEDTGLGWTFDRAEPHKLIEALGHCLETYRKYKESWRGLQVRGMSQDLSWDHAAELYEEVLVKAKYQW


Columns and labels:
[1] = target: T1, starch synthase IIa (rice, Oryza sativa japonica cv. Nipponbare (endogenous in developing seeds)); test: condition: only in extract of ss1^L/ss2a^L/SS3a seeds; co-IP; as a1, soluble proteins of developing seeds of ss1^L/ss2a^L/SS3a (SSI reduced); control with pre-immune serum
[2] = target: T1, starch synthase IIa (rice, Oryza sativa japonica cv. Nipponbare (endogenous in developing seeds)); test: condition: only in extract of ss1^L/ss2a^L/ss3a seeds; co-IP; as a1, soluble proteins of developing seeds of ss1^L/ss2a^L/ss3a (SSI reduced, SSIIIa absent); control with pre-immune serum
[3] = target: T1, starch synthase IIa (rice, Oryza sativa japonica cv. Nipponbare (endogenous in developing seeds)); test: co-IP; immuno-precipitation with isozyme specific antibodies from soluble proteins of developing rice seeds, immuno-blotting; wild-type Nipponbare (SS1/ss2a^L/SS3a); the BEI-BEIIb, BEI-PUL and Pho1-BEIIa pairs also in the three mutant lines; control with pre-immune serum
[4] = target: T1, starch synthase IIa (rice, Oryza sativa japonica cv. Nipponbare (endogenous in developing seeds)); test: condition: only in extract of SS1/ss2a^L/ss3a seeds; co-IP; as a1, soluble proteins of developing seeds of SS1/ss2a^L/ss3a (SSIIIa absent); control with pre-immune serum
[5] = target: pullulanase (rice, Oryza sativa japonica cv. Nipponbare (endogenous in developing seeds)); test: co-IP; immuno-precipitation with isozyme specific antibodies from soluble proteins of developing rice seeds, immuno-blotting; wild-type Nipponbare (SS1/ss2a^L/SS3a); the BEI-BEIIb, BEI-PUL and Pho1-BEIIa pairs also in the three mutant lines; control with pre-immune serum
[6] = target: starch branching enzyme IIb (rice, Oryza sativa japonica cv. Nipponbare (endogenous in developing seeds)); test: as above

Row | binding [1] | binding [2] | binding [3] | binding [4] | binding [5] | binding [6] | Molecule
1 | no binding | no binding | binds | no binding | – | – | starch branching enzyme IIb
2 | – | – | – | – | binds | binds | starch branching enzyme I (enzyme, UniProt Q01401 65-820) TMVTVVEEVDHLPIYDLDPKLEEFKDHFNYRIKRYLDQKCLIEKHEGGLEEFSKGYLKFGINTVDGATIYREWAPAAQEAQLIGEFNNWNGAKHKMEKDKFGIWSIKISHVNGKPAIPHNSKVKFRFRHGGGAWVDRIPAWIRYATFDASKFGAPYDGVHWDPPACERYVFKHPRPPKPDAPRIYEAHVGMSGEEPEVSTYREFADNVLPRIRANNYNTVQLMAIMEHSYYASFGYHVTNFFAVSSRSGTPEDLKYLVDKAHSLGLRVLMDVVHSHASNNVTDGLNGYDVGQNTHESYFHTGDRGYHKLWDSRLFNYANWEVLRFLLSNLRYWMDEFMFDGFRFDGVTSMLYHHHGINKGFTGNYKEYFSLDTDVDAIVYMMLANHLMHKLLPEATIVAEDVSGMPVLCRPVDEGGVGFDFRLAMAIPDRWIDYLKNKEDRKWSMSEIVQTLTNRRYTEKCIAYAESHDQSIVGDKTIAFLLMDKEMYTGMSDLQPASPTINRGIALQKMIHFITMALGGDGYLNFMGNEFGHPEWIDFPREGNNWSYDKCRRQWSLVDTDHLRYKYMNAFDQAMNALEEEFSFLSSSKQIVSDMNEKDKVIVFERGDLVFVFNFHPNKTYKGYKVGCDLPGKYRVALDSDALVFGGHGRVGHDVDHFTSPEGMPGVPETNFNNRPNSFKVLSPPRTCVAYYRVDEDREELRRGGAVASGKIVTEYIDVEATSGETISGGWKGSEKDDCGKKGMKFVFRSSDEDCK
